Reference: paper PMC9371924, “Exploration of DNA processing features unravels novel properties of ICE conjugation in Gram-positive bacteria”
Positions count from the first letter of the chain named. For at least one entry, the source does not settle the construct or the ends of the probe. For some assays here: No signal at the amounts used counts as a negative. Tags and fusion partners may be left off the protein sequences shown. For some assays here: The comparison behind a weaker result is the experiment's own reference, which may not be listed here.

Tests used:
[1] = target: T1, RelSt3 (MOBT relaxase) (Streptococcus thermophilus (ICESt3)) (UniProt Q935T7); assay: EMSA; settings: agarose, 0.5 and 1.5 uM; PAGE EMSA: 20 mM Tris-HCl (pH not stated), 500 mM NaCl, 100 ug/ml salmon sperm DNA, 0.11 uM DNA, 15 min 37 C, gel run at 4 C; recombinant protein; probe letters rebuilt from the primers and the genome
T1 sequence (looked up, limits assumed): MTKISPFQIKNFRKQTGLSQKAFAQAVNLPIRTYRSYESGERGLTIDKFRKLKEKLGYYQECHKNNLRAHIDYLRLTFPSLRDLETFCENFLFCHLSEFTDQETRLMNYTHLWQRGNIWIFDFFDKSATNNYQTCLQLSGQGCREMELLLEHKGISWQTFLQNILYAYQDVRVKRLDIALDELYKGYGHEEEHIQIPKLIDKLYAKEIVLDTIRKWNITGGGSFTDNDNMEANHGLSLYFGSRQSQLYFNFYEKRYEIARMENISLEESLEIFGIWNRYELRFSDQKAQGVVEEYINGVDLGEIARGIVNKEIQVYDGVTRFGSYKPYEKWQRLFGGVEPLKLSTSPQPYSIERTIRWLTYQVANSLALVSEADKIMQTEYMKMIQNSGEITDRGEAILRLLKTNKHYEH

[2] = target: T2, RelSt3 (MOBT relaxase) (Streptococcus thermophilus (ICESt3)) (UniProt Q935T7); assay: EMSA; settings: up to 6.4 uM, PAGE EMSA: 20 mM Tris-HCl (pH not stated), 500 mM NaCl, 100 ug/ml salmon sperm DNA, 0.11 uM DNA, 15 min 37 C, gel run at 4 C, recombinant protein, label: 5' 6-FAM
T2 sequence (looked up, limits assumed): T1 sequence (looked up, limits assumed) with N28S, E61G, A128V, E190D, N229D, N297T, S324A, R333E

[3] = target: T2, RelSt3 (MOBT relaxase) (Streptococcus thermophilus (ICESt3)); assay: covalent adduct gel (Coomassie); settings: Mn2+, covalent nicking intermediate; recombinant protein

AAAAAGAATTCAATCCTCGCTCAATTTGAAGAGGGAGGACGCAGGTCTTATCCAAAAGCAGTTGAAGCGACGATTGTTCATCATGGGCTAGGACAAGGGCAAGGACAAGCCTGACCACAGGTCAGGCGCAGACCGTAGCCCGAAGTTCCTAGGCCATGATGAGACTTCAACCCCCGATTTCTAATAGGGGGGTTACATTTGGCCAAAGTGCCACGTCCACCCCTCCTCATTCCTTGTGGGAGTTGGGATTTCAAGATTTAGAAAGTGTGTCACTTTGGTCCAAAAAGTGTGTCACTTAGTCAAAAGGAGGTGGGCCCTTTTT (double strand) [oriT5 PCR product]
binding result [1]: binds

AAAAAGAATTCAGGCATTGTATTCGAACGTTCAGACTCTGCCATTCTAGTGAATCCTTTTCAAGAAAAACTTCTTCTTGAAATCCTCGCTCAATTTGAAGAGGGAGGACGCAGGTCTTATCCAAAAGCAGTTGAAGCGACGATTGTTCATCATGGGCTAGGACAAGGGCAAGGACAAGCCTGACCACAGGTCAGGCGCAGACCGTAGCCCGAAGTTCCTAGGCCATGATGAGACTTCAACCCCCGATTTCTAATAGGGGGGTTACATTTGGCCAAAGTGCCACGTCCACCCCTCCTCATTCCGGGCCCTTTTT (double strand) [oriT4 PCR product]
binding result [1]: no binding

AAAAAGAATTCTAATAGGGGGGTTACATTTGGCCAAAGTGCCACGTCCACCCCTCCTCATTCCTTGTGGGAGTTGGGATTTCAAGATTTAGAAAGTGTGTCACTTTGGTCCAAAAAGTGTGTCACTTAGTCAAAAGGAGGTGTTCCCATGAATGACTAAAATAAGTCCCTTTCAGATCAAAAACTTTAGAAAACAAACAGGCCTTAGCCAAAAAGCCTTTGCACAAGCAGTTAACTTACCGATAAGAACTTACCGCTCCTATGAATCTGGGGAAAGAGGTCTGACCATTGACAAGTTTCGAAAACTCAAAGGGGCCCTTTTT (double strand) [oriT3 PCR product]
binding result [1]: binds

AAAAAGGGCCCGAAATCGGGGGTTGAAGTCTCATCATGGCCTAGGAACTTCGGGCTACGGTCTGCGCCTGACCTGTGGTCAGGCTTGTCCTTGCCCTTGTCCTAGCCCATGATGAACAATCGTCGCTTCAACTGCTTTTGGATAAGACCTGCGTCCTCCCTCTTCAAATTGAGCGAGGATTTCAAGAAGAAGTTTTTCTTGAAAAGGATTCACTAGAATGGCAGAGTCTGAACGTTCGAATACAATGCCTTGTTCTTGCAAGAGATAAATGATCTTTCGAAGCGTCGCCATTTTGAGGTCTTGTTCCTCCGGAATTCTTTTT (double strand) [oriT2 PCR product]
binding result [1]: no binding

CTTTGGTCCAAAAAGTGTGTCACTTAGTCAAAAGGAG (double strand) [ori43 (IR2b)]
binding result ([2]; no or very poor binding): binds more weakly

GAGACTTCAACCCCCGATTTCTAATAGGGGGGTTACATTTTCAAGATTTAGAAAGTGTGTCACTTTGGTCCAAAAAGTGTGTCACTTAGTCAAAAGGAG / CTCCTTTTGACTAAGTGACACACTTTTTGGACCAAAGTGACACACTTTCTAAATCTTGA [ori50 unlabeled]
binding result [3]: binds

TCAAGATTTAGAAAGTGTGTCACTTTGGTCCAAAAAGTGTGTCACTTAGTCAAAAGGAG [ss-ori41]
binding result ([2]; single-stranded DNA): no binding

TTTCAAGATTTAGAAAGTGTGTCACTTTGGTCCAAA (double strand) [ori34 (IR2a)]
binding result ([2]; no or very poor binding): binds more weakly
